The other results are listed elsewhere or left out. The data scatter; read single values as rough.
How the values were obtained:
[1] = compound: ClCC(=O)N[C@@H]1CCCc2ccccc12; experiment: log2 mean competition ratio of IA-DTB cysteine labelling (DMSO/compound) (log2 ratio); higher = stronger cysteine engagement by compound; settings: treatment time: 4 h, cell line lysate: HEK293T
Protocol: (§1)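 IA-DTB competitive cysteine chemoproteomics in HEK293T RIPA lysate. Lysates were treated with compound 29 or 30 at 50 or 200 µM for 4 h, then IA-DTB (500 µM, 1 h), trypsin-digested, NeutrAvidin-enriched and analysed by diaPASEF. Competition ratio = intensity DMSO / intensity compound (n=4 treated, n=64 DMSO); binding: mean log2 CR ≥ 1 and p ≤ 0.05 plus QC filters. Target is the cysteine site.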

Protein sequences, listed by entry. Tags and fused reporters are not part of them. Lines headed by an entry give the natural chain unless they say otherwise; changes in a name come on top. Residues count along the entry.
UniProt Q13325, 69-92: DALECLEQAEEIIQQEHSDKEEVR
UniProt Q96HW7, whole entry, looked up: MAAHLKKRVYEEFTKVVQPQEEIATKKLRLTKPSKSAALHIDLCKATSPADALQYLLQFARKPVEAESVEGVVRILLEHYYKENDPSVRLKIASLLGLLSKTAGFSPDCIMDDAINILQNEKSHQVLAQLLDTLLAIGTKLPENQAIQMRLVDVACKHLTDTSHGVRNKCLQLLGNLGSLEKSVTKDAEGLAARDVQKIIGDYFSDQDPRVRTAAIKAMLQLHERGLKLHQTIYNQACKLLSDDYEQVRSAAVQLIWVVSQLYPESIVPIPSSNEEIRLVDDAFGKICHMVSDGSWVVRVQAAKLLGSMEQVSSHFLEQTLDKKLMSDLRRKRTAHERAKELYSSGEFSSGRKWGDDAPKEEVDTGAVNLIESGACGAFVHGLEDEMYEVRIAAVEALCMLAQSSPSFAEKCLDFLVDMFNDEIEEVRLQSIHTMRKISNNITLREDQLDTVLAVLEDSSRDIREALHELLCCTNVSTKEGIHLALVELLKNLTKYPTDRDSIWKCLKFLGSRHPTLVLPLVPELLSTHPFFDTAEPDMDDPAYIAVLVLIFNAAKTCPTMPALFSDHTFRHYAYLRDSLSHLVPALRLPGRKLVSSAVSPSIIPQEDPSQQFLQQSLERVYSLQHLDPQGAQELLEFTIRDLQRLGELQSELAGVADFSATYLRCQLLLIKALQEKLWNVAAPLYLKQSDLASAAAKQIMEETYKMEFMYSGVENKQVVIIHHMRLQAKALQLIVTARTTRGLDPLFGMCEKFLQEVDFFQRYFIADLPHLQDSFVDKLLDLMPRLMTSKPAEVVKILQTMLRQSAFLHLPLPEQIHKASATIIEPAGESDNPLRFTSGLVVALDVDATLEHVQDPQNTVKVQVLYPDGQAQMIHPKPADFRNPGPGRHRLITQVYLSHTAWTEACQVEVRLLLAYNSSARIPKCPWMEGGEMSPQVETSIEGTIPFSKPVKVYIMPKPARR
UniProt Q86VI3: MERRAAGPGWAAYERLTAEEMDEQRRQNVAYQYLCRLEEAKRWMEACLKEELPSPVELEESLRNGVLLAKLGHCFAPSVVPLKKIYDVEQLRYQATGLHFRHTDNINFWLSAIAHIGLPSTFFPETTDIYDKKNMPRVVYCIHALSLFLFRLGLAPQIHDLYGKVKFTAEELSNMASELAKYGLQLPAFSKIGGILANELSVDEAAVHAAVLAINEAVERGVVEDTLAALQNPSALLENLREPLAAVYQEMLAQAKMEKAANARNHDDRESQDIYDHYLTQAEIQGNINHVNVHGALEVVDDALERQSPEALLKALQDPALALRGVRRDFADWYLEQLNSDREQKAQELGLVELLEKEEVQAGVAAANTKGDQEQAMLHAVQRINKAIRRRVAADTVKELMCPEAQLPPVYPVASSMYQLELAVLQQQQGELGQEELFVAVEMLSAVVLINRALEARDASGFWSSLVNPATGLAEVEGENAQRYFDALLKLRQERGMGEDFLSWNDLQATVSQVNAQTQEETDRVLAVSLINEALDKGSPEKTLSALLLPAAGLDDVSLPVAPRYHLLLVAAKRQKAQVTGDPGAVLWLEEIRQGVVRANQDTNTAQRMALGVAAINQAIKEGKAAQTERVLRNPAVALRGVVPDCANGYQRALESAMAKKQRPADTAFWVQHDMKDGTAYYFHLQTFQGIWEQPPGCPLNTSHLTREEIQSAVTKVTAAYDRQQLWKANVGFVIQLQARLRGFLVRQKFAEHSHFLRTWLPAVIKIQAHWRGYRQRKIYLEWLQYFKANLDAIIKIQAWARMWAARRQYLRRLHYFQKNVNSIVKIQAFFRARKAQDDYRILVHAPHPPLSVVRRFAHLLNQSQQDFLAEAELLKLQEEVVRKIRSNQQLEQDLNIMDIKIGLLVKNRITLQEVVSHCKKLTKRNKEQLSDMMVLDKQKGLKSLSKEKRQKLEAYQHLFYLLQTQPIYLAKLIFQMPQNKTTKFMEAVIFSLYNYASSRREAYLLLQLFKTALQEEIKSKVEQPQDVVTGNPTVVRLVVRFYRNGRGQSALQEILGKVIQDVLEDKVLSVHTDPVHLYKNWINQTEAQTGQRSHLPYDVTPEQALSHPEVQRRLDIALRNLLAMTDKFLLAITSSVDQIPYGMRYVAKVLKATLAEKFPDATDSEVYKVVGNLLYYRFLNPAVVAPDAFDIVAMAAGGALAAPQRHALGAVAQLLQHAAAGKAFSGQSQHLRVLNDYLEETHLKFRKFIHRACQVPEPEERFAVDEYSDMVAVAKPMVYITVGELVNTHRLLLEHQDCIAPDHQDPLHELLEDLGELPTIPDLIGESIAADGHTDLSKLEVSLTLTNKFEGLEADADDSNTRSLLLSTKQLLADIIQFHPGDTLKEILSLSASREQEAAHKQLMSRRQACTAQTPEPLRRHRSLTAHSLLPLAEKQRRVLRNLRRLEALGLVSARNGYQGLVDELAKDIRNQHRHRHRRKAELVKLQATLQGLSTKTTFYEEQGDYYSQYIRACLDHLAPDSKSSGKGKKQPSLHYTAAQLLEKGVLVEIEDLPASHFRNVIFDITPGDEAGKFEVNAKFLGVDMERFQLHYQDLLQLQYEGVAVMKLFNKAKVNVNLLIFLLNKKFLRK
UniProt Q8TEX9: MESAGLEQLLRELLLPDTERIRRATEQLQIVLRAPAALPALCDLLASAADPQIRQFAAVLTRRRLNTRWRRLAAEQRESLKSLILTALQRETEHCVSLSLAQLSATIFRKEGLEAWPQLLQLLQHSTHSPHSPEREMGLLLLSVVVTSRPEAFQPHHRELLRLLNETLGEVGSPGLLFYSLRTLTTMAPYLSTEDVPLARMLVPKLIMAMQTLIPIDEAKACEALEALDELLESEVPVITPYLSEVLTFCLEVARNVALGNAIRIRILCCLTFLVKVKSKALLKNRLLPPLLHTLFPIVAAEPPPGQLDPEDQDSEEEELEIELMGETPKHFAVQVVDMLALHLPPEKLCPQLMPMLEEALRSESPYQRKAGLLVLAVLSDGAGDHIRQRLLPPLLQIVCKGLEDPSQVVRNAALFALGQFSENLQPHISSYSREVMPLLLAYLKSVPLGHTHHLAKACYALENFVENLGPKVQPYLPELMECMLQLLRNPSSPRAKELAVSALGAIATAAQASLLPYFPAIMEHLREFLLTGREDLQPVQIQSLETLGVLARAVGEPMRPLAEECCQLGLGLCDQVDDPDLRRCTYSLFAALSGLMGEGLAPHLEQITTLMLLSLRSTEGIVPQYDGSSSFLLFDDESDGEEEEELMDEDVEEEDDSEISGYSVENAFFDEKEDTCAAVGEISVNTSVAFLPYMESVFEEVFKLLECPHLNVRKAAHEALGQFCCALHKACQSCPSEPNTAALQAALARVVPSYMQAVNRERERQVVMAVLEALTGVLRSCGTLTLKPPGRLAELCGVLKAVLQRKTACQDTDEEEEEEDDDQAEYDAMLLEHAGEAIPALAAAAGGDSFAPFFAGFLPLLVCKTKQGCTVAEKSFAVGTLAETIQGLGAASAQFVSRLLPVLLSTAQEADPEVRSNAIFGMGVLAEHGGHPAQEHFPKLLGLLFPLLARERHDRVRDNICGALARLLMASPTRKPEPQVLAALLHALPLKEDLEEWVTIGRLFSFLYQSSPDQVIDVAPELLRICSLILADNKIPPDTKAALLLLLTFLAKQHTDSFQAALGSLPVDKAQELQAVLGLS
UniProt Q9BW83: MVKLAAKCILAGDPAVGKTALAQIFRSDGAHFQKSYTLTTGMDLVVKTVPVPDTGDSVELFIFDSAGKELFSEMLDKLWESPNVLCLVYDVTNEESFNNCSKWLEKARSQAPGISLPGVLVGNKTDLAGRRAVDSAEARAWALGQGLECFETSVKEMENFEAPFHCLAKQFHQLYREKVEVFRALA
UniProt Q14642: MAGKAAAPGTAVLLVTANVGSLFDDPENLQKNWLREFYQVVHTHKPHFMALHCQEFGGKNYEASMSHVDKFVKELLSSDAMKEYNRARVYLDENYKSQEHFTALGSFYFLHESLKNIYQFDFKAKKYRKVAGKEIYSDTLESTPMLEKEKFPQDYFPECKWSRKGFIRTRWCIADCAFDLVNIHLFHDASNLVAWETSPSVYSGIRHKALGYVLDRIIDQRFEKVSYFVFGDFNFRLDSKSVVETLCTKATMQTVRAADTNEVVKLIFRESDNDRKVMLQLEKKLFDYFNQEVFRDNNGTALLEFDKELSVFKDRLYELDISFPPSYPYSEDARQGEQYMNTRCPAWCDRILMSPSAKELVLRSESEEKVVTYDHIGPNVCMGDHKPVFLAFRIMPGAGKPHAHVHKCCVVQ
UniProt Q9Y2F5: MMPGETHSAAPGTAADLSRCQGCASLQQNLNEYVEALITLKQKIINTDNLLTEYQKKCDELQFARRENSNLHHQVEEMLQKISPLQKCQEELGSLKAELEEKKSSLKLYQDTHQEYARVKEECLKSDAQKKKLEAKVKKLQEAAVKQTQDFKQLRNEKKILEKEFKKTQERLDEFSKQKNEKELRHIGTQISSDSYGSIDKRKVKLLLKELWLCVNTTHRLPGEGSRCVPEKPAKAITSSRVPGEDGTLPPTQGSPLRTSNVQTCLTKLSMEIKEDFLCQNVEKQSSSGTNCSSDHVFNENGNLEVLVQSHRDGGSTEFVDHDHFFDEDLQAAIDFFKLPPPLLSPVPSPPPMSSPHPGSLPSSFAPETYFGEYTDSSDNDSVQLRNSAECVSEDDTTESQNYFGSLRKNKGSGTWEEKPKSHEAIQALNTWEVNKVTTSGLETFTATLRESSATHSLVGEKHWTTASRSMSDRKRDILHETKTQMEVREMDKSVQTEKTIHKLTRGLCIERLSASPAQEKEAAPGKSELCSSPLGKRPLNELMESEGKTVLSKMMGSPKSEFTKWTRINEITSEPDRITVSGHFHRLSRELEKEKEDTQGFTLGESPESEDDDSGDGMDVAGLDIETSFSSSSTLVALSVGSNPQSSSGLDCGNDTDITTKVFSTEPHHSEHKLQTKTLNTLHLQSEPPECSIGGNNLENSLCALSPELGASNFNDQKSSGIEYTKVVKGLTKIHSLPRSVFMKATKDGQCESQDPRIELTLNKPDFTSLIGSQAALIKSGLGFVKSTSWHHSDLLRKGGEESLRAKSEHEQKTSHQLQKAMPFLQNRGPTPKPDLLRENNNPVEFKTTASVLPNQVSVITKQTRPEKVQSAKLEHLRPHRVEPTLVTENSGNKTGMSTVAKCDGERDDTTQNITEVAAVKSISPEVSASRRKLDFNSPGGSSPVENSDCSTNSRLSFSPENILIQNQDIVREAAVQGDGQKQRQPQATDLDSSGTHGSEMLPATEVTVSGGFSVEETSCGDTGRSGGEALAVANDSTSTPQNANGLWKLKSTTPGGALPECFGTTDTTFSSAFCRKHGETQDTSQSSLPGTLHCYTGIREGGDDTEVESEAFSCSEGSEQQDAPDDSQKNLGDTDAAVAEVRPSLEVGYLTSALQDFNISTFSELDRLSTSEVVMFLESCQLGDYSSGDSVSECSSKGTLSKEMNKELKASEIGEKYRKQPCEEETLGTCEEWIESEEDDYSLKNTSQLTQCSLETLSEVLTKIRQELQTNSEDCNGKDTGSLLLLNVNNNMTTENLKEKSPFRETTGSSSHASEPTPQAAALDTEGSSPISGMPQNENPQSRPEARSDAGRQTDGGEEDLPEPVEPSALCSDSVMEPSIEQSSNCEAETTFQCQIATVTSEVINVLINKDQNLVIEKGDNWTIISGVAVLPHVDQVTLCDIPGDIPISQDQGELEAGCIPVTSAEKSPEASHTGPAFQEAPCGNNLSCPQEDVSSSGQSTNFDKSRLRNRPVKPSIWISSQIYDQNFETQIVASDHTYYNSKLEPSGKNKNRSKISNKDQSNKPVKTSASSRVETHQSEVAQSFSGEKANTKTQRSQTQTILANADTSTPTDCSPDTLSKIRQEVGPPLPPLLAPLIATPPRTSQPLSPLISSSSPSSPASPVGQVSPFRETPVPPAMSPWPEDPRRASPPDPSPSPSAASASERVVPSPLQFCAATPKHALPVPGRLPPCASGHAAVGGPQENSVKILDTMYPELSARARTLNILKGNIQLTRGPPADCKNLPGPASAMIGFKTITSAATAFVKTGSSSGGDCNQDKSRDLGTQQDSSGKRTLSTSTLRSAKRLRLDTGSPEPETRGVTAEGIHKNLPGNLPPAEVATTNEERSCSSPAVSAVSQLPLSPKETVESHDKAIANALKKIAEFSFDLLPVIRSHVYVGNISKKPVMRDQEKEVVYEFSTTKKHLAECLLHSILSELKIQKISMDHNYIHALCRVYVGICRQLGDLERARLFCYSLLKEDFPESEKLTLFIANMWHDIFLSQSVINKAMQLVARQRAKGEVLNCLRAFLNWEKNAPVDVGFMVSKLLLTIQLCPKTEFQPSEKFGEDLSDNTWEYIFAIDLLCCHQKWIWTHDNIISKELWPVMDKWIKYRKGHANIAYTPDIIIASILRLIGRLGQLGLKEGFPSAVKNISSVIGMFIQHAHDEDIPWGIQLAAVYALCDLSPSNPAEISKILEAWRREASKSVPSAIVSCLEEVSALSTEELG
UniProt Q13123, 259-281: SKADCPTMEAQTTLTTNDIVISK

[2] = compound: ClCC(=O)N[C@H]1CCCc2ccccc12; experiment: as above; settings: treatment time: 4 h, cell line lysate: HEK293T
Protocol: as §1

Target	log2 mean competition ratio ([1]; 50 µM)	log2 mean competition ratio ([1]; 200 µM)	log2 mean competition ratio ([2]; 50 µM)	log2 mean competition ratio ([2]; 200 µM)
INTS7 C177 (UniProt Q9NVH2)	-0.0781	-0.167	0.321	-0.0571
HPRT1 C106 (UniProt P00492)	0.00966	-0.139	-0.0663	-0.0752
HUWE1 C2666	-0.0608	-0.0281	-0.103	-0.0713
HPF1 C152 (UniProt Q9NWY4)	0.0707	-0.558	0.43	-0.296
HUWE1 C1879	0.0101	-0.0892	0.438	0.0855
IFIT5 C73 (UniProt Q13325)	-0.415	-0.0838	-0.264	-0.534
IRF2BPL C385 (UniProt Q9H1B7)	0.38	-0.26	0.352	0.0266
IRAK1 C225 (UniProt P51617)	-0.0476	0.148	-0.226	0.112
HSPA9 C608 (UniProt P38646)	-0.0889	-0.202	-0.213	-0.205
IFFO1 C331	-0.111	0.287	0.164	0.49
INTS4 C558 (UniProt Q96HW7)	0.0461	-0.351	-0.124	-0.0505
IQGAP3 C1515 (UniProt Q86VI3)	0.0041	0.158	-0.511	-0.143
INCENP C483 (UniProt Q9NQS7)	0.12	0.543	0.139	0.484
IARS1 C336	0.287	-0.168	-0.188	-0.196
IPO9 C639 (UniProt Q96P70)	-0.333	0.125	0.156	0.00124
HSPA4 C245 (UniProt P34932)	-0.383	0.139	-0.156	-0.00913
IPO4 C782 (UniProt Q8TEX9)	0.584	0.137	-0.165	0.0374
IPO7 C415 (UniProt O95373)	0.0532	-0.51	-0.116	-0.378
IFT140 C663 (UniProt Q96RY7)	0.167	0.301	0.0566	0.227
IARS1 C433	0.224	-0.338	0.227	-0.248
IKBKG C95 (UniProt Q9Y6K9)	0.133	-0.173	-0.331	-0.0936
INTS4 C751 (UniProt Q96HW7)	-0.0526	-0.177	-0.278	0.0501
IFT27 C8 (UniProt Q9BW83)	-0.103	-0.00992	0.0856	0.0374

Complete entries from above. Order of values: log2 mean competition ratio ([1]; 50 µM)	log2 mean competition ratio ([1]; 200 µM)	log2 mean competition ratio ([2]; 50 µM)	log2 mean competition ratio ([2]; 200 µM)
IARS1 C336 is listed as 0.287	-0.168	-0.188	-0.196
INTS4 C558 (UniProt Q96HW7) is listed as 0.0461	-0.351	-0.124	-0.0505
IRF2BPL C385 (UniProt Q9H1B7) is listed as 0.38	-0.26	0.352	0.0266

The listing continues.

Target	log2 mean competition ratio ([1]; 50 µM)	log2 mean competition ratio ([1]; 200 µM)	log2 mean competition ratio ([2]; 50 µM)	log2 mean competition ratio ([2]; 200 µM)
INTS3 C731 (UniProt Q68E01)	-0.0199	0.127	0.0296	0.355
HTT C827 (UniProt P42858)	0.157	0.062	0.411	0.277
IPPK C220 (UniProt Q9H8X2)	0.00269	-0.0106	-0.0133	0.168
INF2 C332 (UniProt Q27J81)	-0.105	-0.143	-0.0156	-0.331
IRAK4 C13 (UniProt Q9NWZ3)	0.183	0.503	0.228	0.274
HPS6 C408 (UniProt Q86YV9)	-0.186	-0.114	0.224	-0.166
IRF2BP2 C40 (UniProt Q7Z5L9)	-0.102	0.234	-0.196	0.0973
INF2 C650 (UniProt Q27J81)	0.143	0.126	-0.771	-0.00705
IFT122 C519 (UniProt Q9HBG6)	0.0389	-0.00314	-0.308	0.0929
IPO4 C962 (UniProt Q8TEX9)	0.147	-0.18	0.397	-0.124
IPO5 C473	0.000849	0.224	0.124	0.0792
IFT140 C577 (UniProt Q96RY7)	0.128	-0.214	0.0584	-0.0672
INTS4 C44 (UniProt Q96HW7)	0.0782	0.389	0.235	0.325
INPP5A C247 (UniProt Q14642)	-0.0678	-0.386	0.00383	-0.245
ICE1 C123 (UniProt Q9Y2F5)	-0.0069	-0.332	0.254	-0.553
IDI1 C172 (UniProt Q13907)	0.0439	-0.464	0.605	-0.0783
IPO5 C972	-0.134	0.113	-0.238	0.0895
IFIT5 C476 (UniProt Q13325)	-0.419	-0.106	-0.497	-0.0532
INPPL1 C215 (UniProt O15357)	0.18	0.0528	0.000763	0.0744
IK C263 (UniProt Q13123)	-0.31	-0.326	0.352	-0.468
IPO4 C797 (UniProt Q8TEX9)	-0.118	0.108	-0.259	0.0919
IDH2 C154 (UniProt P48735)	0.203	0.339	0.488	0.235

From the supplement of paper PMC11732987, “Enantioselective OTUD7B fragment discovery through chemoproteomics screening and high-throughput optimisation” (Communications Chemistry, 2025)
